# Measured values: patent EP1150705B1, “PROTECTION OF CELLS WITH BBI IN CONNECTION WITH TREATMENT WITH CHEMICAL AGENTS” (Eberhard-Karls-Universität Tübingen Universitätsklinikum, priority 1999, dated 2004)
# Part of at least one peptide drawing is inferred or uncertain, most often the ends. Where a SMILES comes first, the peptide text is derived from it.
# System: Chymotrypsin
# Experiment: More sensitive chymotrypsin inhibition measurement, residual activity by hydrolysis of AAPF-pNA
# Type: biochemical
# Conditions: 0,28 mU Chymotrypsin, substrate AAPF-pNA
compound,measurement,value
CC(C)C[C@H](NC(=O)[C@H](C)N)C(=O)N[C@@H](CO)C(=O)N[C@@H](Cc1ccc(O)cc1)C(=O)N1CCC[C@H]1C(=O)N[C@@H](C)C(=O)N[C@@H](CCC(N)=O)C(=O)O [Peptid P2] (H-ALSYPAQ-OH),"Antichymotrypsin-Aktivität, Faktor geringer als die inhibitorische Aktivität von BBI",≥ 500 000
same,Konzentration mit etwa gleicher Hydrolysekinetik,2 mM
